Values joined by “and” are separate entries in the source; they are usually repeats but may differ in a detail not shown here. Identical values can stand only once. Counter-ions that a name gives are not always drawn. The list shows a part of the results. This data set is noisy: repeats of one test often differ as much as different tests do.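 HEK293T cells were given each compound shortly before transfection with a reporter in which red mCherry is followed by the SARS-CoV-2 frameshift element and then GFP in the −1 frame, so GFP appears only after frameshifting.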
Tested on: HEK293T
Assay: percent viability (nuclei count) relative to control; higher = more viable cells
Conditions: 10 µM; 24 h

Row | Structure (SMILES) | percent viability
1 | CC1=C(CC(=O)O)c2cc(F)ccc2/C1=C\c1ccc([S+](C)[O-])cc1 (stereo not given) | 147%
2 | CC(C)[C@H]1CC[C@H](C(=O)N[C@H](Cc2ccccc2)C(=O)O)CC1 [Nateglinide] | 155%
3 | O=C1[C@@H]2[C@H]3CC[C@H](C3)[C@@H]2C(=O)N1C[C@@H]1CCCC[C@H]1CN1CCN(c2nsc3ccccc23)CC1 [lurasidone] | 231%
4 | O=C1N=C(N2CCOCC2)CN1c1ccc(Cl)cc1 [imepitoin] | 196%
5 | CC(C)(C(=O)O)c1ccc(C(=O)CCCN2CCC(OC(c3ccccc3)c3ccccc3)CC2)cc1 [carebastine] | 240%
6 | C(=N\NC1=NCCN1)/c1c2ccccc2c(/C=N/NC2=NCCN2)c2ccccc12 [bisantrene] | 37%
7 | CC(=O)OCC1=C(C(=O)O)N2C(=O)[C@@H](NC(=O)Cc3cccs3)[C@H]2SC1 | 287%
8 | CCC(c1ccccc1)c1c(O)c2ccccc2oc1=O (stereo not given) [phenprocoumon] | 107%
9 | CCOC(=O)n1ccn(C)c1=S [carbimazole] | 235%
10 | Nc1nc2ccc(OC(F)(F)F)cc2s1 [Riluzole·HCl] | 369%
11 | C[C@]12CCC(=O)C=C1[C@@H]1C[C@@H]1[C@H]1[C@@H]3[C@@H]4C[C@@H]4[C@@]4(CCC(=O)O4)[C@@]3(C)CC[C@@H]12 [drospirenone] | 129% and 246%
12 | O=[N+]([O-])c1ccc(/C=N/O)o1 [nifuroxime] | 232%
13 | CCCc1nn(C)c2c(=O)[nH]c(-c3cc(S(=O)(=O)N4CCN(C)CC4)ccc3OCC)nc12 [sildenafil] | 273%
14 | CN(C)[C@@H]1C(=O)C(C(=O)NCN2CCCC2)=C(O)[C@@]2(O)C(=O)C3=C(O)c4c(O)cccc4[C@@](C)(O)[C@H]3C[C@@H]12 | 169%
15 | COc1cc(OC)nc(O[C@H](C(=O)O)C(OC)(c2ccccc2)c2ccccc2)n1 [darusentan] | 207%
16 | O=C1OC(c2ccc(O)cc2)(c2ccc(O)cc2)c2ccccc21 [phenolphthalein] | 166%
17 | CC(SC(=O)c1cccs1)C(=O)NCC(=O)O (stereo not given) [stepronin] | 272%
18 | CC(C)N(CCC(c1ccccc1)c1ccccc1)C(C)C [diisopromine] | 194%
19 | Cc1cn([C@H]2O[C@@H](CO)[C@H](O)[C@H]2F)c(=O)[nH]c1=O [clevudine] | 432%
20 | CN(C)CCc1c[nH]c2ccc(Cn3cncn3)cc12 [rizatriptan] | 268%

Row | Structure (SMILES) | percent viability
21 | NS(=O)(=O)c1cc2c(cc1Cl)N=C(CSCc1ccccc1)NS2(=O)=O [benzthiazide] | 195%
22 | CC(C)(O/N=C(\C(=O)N[C@@H]1C(=O)N2C(C(=O)[O-])=C(C[n+]3ccccc3)CS[C@H]12)c1csc(N)n1)C(=O)O [Fortaz] | 186%
23 | C#C[C@]1(O)CC[C@H]2[C@@H]3CCC4=Cc5oncc5C[C@]4(C)[C@H]3CC[C@@]21C [danazol] | 159% and 222%
24 | CC(C)[C@H](N)C(=O)OCC(CO)OCn1cnc2c(=O)nc(N)[nH]c21 (stereo not given in full) [Valcyte] | 267%
25 | CC[C@H]1OC(=O)C[C@@H](O)[C@H](C)[C@@H](O[C@@H]2O[C@H](C)[C@@H](O[C@H]3C[C@@](C)(O)[C@@H](O)[C@H](C)O3)[C@H](N(C)C)[C@H]2O)[C@@H](CC=O)C[C@@H](C)C(=O)/C=C/C(C)=C/[C@@H]1CO[C@@H]1O[C@H](C)[C@@H](O)[C@@H](OC)[C@H]1OC | 137%
26 | O=C(O)[C@H](CCc1ccccc1)N[C@H]1CCCN2CCC[C@@H](C(=O)O)N2C1=O [cilazaprilat] | 83.8%
27 | CCC[C@@H]1C[C@@H](C(=O)N[C@@H]([C@H]2O[C@H](SC)[C@H](O)[C@@H](O)[C@H]2O)[C@@H](C)O)N(C)C1 [Lincocin] | 106%
28 | Cn1nnnc1SCC1=C(C(=O)O)N2C(=O)[C@@H](NC(=O)[C@H](O)c3ccccc3)[C@H]2SC1 | 143%
29 | CC[C@H](C)[C@H](NC(=O)[C@H](Cc1ccccc1)NC(=O)[C@H](C)NC(=O)[C@H](CC(=O)O)NC(=O)[C@H](CCCCN)NC(=O)[C@H](CO)NC(=O)[C@@H]1CCCN1C(=O)[C@@H]1CCC(=O)N1)C(=O)NCC(=O)N[C@@H](CC(C)C)C(=O)N[C@@H](CCSC)C(N)=O [eledoisin] | 260%
30 | Cc1cc2c(s1)Nc1ccc(F)cc1N=C2N1CCN(C)CC1 [flumezapine] | 397%
31 | NCCCC(=O)O | 183%
32 | Cc1ccc(C(=O)c2cc(O)c(O)c([N+](=O)[O-])c2)cc1 [tolcapone] | 216%
33 | CC(=O)OCC(CCn1cnc2cnc(N)nc21)COC(C)=O [famciclovir] | 357% and 217%
34 | CC(C)NC[C@H](O)COc1cccc2ccccc12 [Propranolol S(-)] | 249%
35 | C[C@H]1C[C@H]2[C@@H]3CCC4=CC(=O)C=C[C@]4(C)[C@H]3C(=O)C[C@]2(C)[C@@]1(O)C(=O)CO [meprednisone] | 137%
36 | CS(=O)(=O)c1ccc(-c2cn3ccccc3n2)cc1 [zolimidine] | 170%
37 | CC(=O)O[C@]1(C(C)=O)CC[C@H]2[C@@H]3C=C(C)C4=CC(=O)CC[C@]4(C)[C@H]3CC[C@@]21C | 112%
38 | O=C(CCCCC(=O)Nc1c(I)cc(I)c(C(=O)O)c1I)Nc1c(I)cc(I)c(C(=O)O)c1I [adipiodone] | 160%
39 | CC(CN(C)C)CN1c2ccccc2CCc2ccccc21 (stereo not given) | 471%
40 | CC(=O)O[C@]1(C(C)=O)CC[C@H]2[C@@H]3C[C@H](C)C4=CC(=O)CC[C@]4(C)[C@H]3CC[C@@]21C | 164%
